Where “and” joins values, the source holds several entries; their conditions need not be identical. Equal values may be shown once. Toxic doses and inconclusive results are not listed. Rule for the calls: active = survival T/C of 150% or more; inactive = T/C below 125% in these data.
System: CD2F1 mice, intracerebral P388 leukemia, median survival T/C%
Assay: NCI In Vivo Anticancer Drug Screen. Data for tumor model P388 Leukemia (intracerebral) in CD2F1 (CDF1) mice
Conditions: endpoint: median survival time, schedule: Q01DX005 (ip), vehicle: Klucel (hydroxypropylcellulose) (HPC), higher = longer survival
Procedure: The antitumor activity of compounds was measured in mice bearing transplantable tumors. Survival or tumor size were measured and the results are expressed as the measurement made in the treated group (T) divided by the measurement made in the vehicle treated control group (C). The tumor model used in this assay is P388 Leukemia (intracerebral) in CD2F1 (CDF1) mice

Measured: T/C

COc1cc2c(c(OC)c1OC)-c1ccc(OC)c(=O)cc1[C@@H](N)CC2
inactive: dose: 4.0 mg/kg/injection 115 % of control and 120 % of control | dose: 8.0 mg/kg/injection 121 % of control and 111 % of control | dose: 16.0 mg/kg/injection 110 % of control

— PubChem BioAssay AID334 (DTP/NCI, 2004)
